Results are given in words; binding and its absence hold for the method and conditions named. In cells and extracts the contact can be indirect. Some binding calls cover weakened binding; strength is not graded here.
What was measured:
[1] = target: prohibitin-2 (PHB2) (human (endogenous in MEC-1)) (UniProt Q99623); test: co-IP; IgG-switched MEC-1 cells lysed in Buffer A; anti-PHB2 on Protein G dynabeads o/n at 4 °C; blot with anti-CD79a and anti-PHB2
[2] = target: prohibitin-2 (PHB2) (human (endogenous in MEC-1)) (UniProt Q99623); test: co-IP; IgM MEC-1 cells lysed in Buffer A; anti-PHB2 on Protein G dynabeads o/n at 4 °C; blot with anti-CD79a and anti-PHB2

Chains of the proteins cited; added tags and fusions are not shown. Residues count along the entry.
UniProt Q99623: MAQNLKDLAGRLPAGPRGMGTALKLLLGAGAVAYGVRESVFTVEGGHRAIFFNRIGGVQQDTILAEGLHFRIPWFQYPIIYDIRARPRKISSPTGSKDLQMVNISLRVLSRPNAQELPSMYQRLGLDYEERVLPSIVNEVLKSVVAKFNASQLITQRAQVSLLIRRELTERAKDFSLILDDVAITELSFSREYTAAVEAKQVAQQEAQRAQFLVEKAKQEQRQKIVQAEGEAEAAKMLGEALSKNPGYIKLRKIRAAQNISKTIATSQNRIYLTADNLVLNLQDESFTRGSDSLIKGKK
UniProt P11912, residues 33-226: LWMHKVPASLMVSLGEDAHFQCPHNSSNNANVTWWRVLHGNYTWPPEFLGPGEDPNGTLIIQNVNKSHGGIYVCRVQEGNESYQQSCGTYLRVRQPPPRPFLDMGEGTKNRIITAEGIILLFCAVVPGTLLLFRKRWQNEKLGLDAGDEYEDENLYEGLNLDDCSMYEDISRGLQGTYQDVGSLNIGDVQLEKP

- binding [1]: binds weakly
- binding [2]: binds
Substance: CD79a (from UniProt P11912 33-226)
